Experimental data from patent US20240117029A1.
Results are given in words; binding and its absence hold for the method and conditions named.

B1: Humanized 11K2 (antibody, human IgG1, V domains shown)
VH: QVQLVQSGAEVKKPGSSVKVSCKASGLTISDTYMHWVRQAPGQGLEWMGRIDPANGNTKFDPKFQGRVTITADTSTSTAYMELSSLRSEDTAVYYCARGVFGFFDYWGQGTTVTVSS
VL: DIQMTQSPSSLSASVGDRVTITCKATEDIYNRLAWYQQKPGKAPKLLISGATSLETGVPSRFSGSGSGTDYTLTISSLQPEDFATYYCQQFWSAPYTFGGGTKVEIK
B2: 1A5 (antibody, V domains shown)
VH: QEQLVESGGDLVKPEGSLTLTCTASGFSFSTSYWMCWVRQAPGKGLELIACISSSIGVTYYASWAEGRFTISKTSSTTVTLQMTSLTVADTATYFCARTTDDNWNVGFNLWGPGTLVTVSS
VL: AYDMTQTPASVEVGVGGTVTIKCQASQSIGNRYLSWYQQKPGQPPKLLIYGTSTLASGVSSRFKGSGSGTQFTLTISGVESADSATYYCQQGATISYLDNAFGGGTEVVVK
B3: 1G9 (antibody, V domains shown)
VH: QSLEESGGDLVKPGASLTLTCKASGIDFSLYSYMCWVRQAPGKGLEWIACVDAGASGSTYYASWAKGRFTISKTSSTTVTLQMTSLTAADTATYFCARGILYYTWPYPAGAIDAFDSWGPGTLVTVSS
VL: AYDMTQTPASVSEPVGGTVTIKCQASESISNYLSWYQQKPGQPPKLLIYKASTLASGVPSRFKGSGSGTEYTVTISGVQSDDAATYYCQQSYSSSNVFNTFGGGTEVVVK

Biological target: huCCL13 wild type
Assay: SPR (Biacore T200), 25 C, pH 7.4; antibody captured on anti-human IgG (Fc), chemokine injected at 5 nM and 20 nM

binding, no binding (tested: 20 nM):
B1
B2
B3
